Values from PubChem BioAssay AID1159578 (Peter MacCallum Cancer Centre, 2015).
Test: 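Genome-wide hunt for genes controlling movement of lymphatic endothelial cells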 (primary screen). Cell system: human lymphatic endothelial cells. Reagent: siRNA pool against human genes, 40 nM. Timing: 48 h after transfection. Detection: 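Cells stained with dye and imaged after a scratch; covered wound area and nuclei counted, duplicates averaged, migration set against mock wells and turned into a robust z-score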. Reading the numbers: migration robust z-score: higher = faster migration into the scratch; nuclei per well: higher = more cells in the well. Hit rule: 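Pools averaging fewer than 3300 nuclei are never called; remaining pools count as changed when migration robust z lies outside -2 to 2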. Calls: active = migration changed; inactive = no migration change, or too few cells.
Here is an unselected part of about 18,000 reagents tested. In the full data, about 1,030 (5.7%) are marked active. 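Inactive calls also include pools with fewer than 3300 nuclei, whose migration was not assessed.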 Raw values are not corrected between plates. Further read-outs or replicates are left out here.

gene knocked down	migration robust z-score	nuclei per well, duplicate mean	call
COQ7	0.75	5948	inactive
LYPLA2	-4.09	6261	active
PSMD4	0.11	5762	inactive
APBA2	1.21	5816	inactive
PLK3	0.31	4824	inactive
EGLN3	-1.98	3413	inactive
SPATA18	0.56	4452	inactive
OBP2A	-2.4	4844	active
SNX14	0.05	5852	inactive
IL17C	-1.08	4878	inactive
NAPA	-0.71	5320	inactive
DRGX	0.88	5234	inactive
DISC1	3.66	5095	active
NYAP1	-0.76	5103	inactive
TMPO	-1.21	5692	inactive
CENPT	0.39	6978	inactive
QDPR	-0.62	6120	inactive
NEMF	-0.5	4460	inactive
ARPC5	-1.38	6048	inactive
OR1A2	-0.83	7422	inactive
ATOH7	-0.17	6385	inactive
SLC2A11	-0.04	5094	inactive
RNF25	0.68	4679	inactive
ANKRD39	0.68	6222	inactive
HECW2	-1.04	4883	inactive
SLC66A3	-0.86	5786	inactive
CASKIN1	-0.32	5779	inactive
DARS1	-0.18	5221	inactive
NAPSA	-0.08	8676	inactive
LCA5L	2.06	7406	active
GNG2	0.19	6037	inactive
PRAMEF1	-0.3	5006	inactive
SPP1	-0.74	4122	inactive
CCL3L1	1.49	5576	inactive
SRD5A2	-0.96	3404	inactive
DRAXIN	0.39	5508	inactive
UBE3B	1.76	4943	inactive
CFAP210	2.25	6980	active
PLAAT5	-0.28	5302	inactive
